Drawing on PMC6704221, this text covers binding for 2 substances.

The chains behind the UniProt entries cited, without tags or fusion partners.
UniProt P09301: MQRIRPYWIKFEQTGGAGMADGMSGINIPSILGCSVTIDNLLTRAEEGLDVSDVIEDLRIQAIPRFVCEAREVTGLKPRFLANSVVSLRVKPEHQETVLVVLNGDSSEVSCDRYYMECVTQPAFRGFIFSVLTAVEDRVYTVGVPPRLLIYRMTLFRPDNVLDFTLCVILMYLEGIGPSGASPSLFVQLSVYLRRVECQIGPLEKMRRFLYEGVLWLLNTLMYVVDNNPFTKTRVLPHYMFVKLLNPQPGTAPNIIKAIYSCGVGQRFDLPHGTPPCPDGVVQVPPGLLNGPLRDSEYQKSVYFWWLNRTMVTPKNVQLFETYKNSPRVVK
UniProt P09271: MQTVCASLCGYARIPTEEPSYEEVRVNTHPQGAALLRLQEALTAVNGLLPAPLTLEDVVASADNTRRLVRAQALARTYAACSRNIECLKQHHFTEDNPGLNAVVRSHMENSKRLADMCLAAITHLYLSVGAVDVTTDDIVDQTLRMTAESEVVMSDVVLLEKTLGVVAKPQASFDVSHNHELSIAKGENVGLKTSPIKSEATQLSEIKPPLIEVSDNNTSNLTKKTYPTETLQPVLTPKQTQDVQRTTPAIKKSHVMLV

Results are given in words; binding and its absence hold for the method and conditions named. Binding seen in cells or lysates may run through a third protein. Some entries that bind do so weakly or less than the wild type.

Assay [1] addresses Varicella-zoster virus ORF53 (made by the virus in infected cells) (varicella-zoster virus) (UniProt P09301). Kind of assay: co-IP; VZV-infected cells.
Assay [2] addresses Varicella-zoster virus ORF53 (expressed from a plasmid) (varicella-zoster virus) (UniProt P09301). Kind of assay: co-IP; plasmid-transfected cells.

As to “Varicella-zoster virus ORF7 (made by the virus in infected cells) (from UniProt P09271 1-259)”, the binding result in assay [1] was “binds”. “Varicella-zoster virus ORF7 (expressed from a plasmid) (from UniProt P09271 1-259)”: the binding entry in assay [2] is “binds”.
